According to PMC11341870:
Results are given in words; binding and its absence hold for the method and conditions named. Binding seen in cells or lysates may run through a third protein. Binding calls can cover weak binding; strength is not graded here.

Molecular target: PfpC_(EC039), phosphatase of the KKP_(EC039) module of E. coli 15EC039 (E. coli 15EC039)
Assay: pull-down; His-PfpC_(EC039) and Gp59 or Gp59^G32E co-expressed from one pETDuet plasmid in E. coli; complex purified on Ni-NTA resin and eluted with imidazole

B1: Gp59, phage T4 replication-related helicase loader (protein, UniProt P13342 1-217)
chain: MIKLRMPAGGERYIDGKSVYKLYLMIKQHMNGKYDVIKYNWCMRVSDAAYQKRRDKYFFQKLSEKYKLKELALIFISNLVANQDAWIGDISDADALVFYREYIGRLKQIKFKFEEDIRNIYYFSKKVEVSAFKEIFEYNPKVQSSYIFKLLQSNIISFETFILLDSFLNIIDKHDEQTDNLVWNNYSIKLKAYRKILNIDSQKAKNVFIETVKSCKY
binding: binds
